The results in this text go back to paper PMC5900052.

In this experiment the target is BAR11-YC (Saccharothrix yanglingensis Hhs.015). Briefly: split reporter; bimolecular fluorescence complementation; BAR11-YC and catalase-YN fusions transiently co-expressed by agroinfiltration in N. benthamiana leaves; YFP seen by laser confocal microscopy; empty vectors YN-1301 and YC-1301 as negative controls.

Results are given in words; binding and its absence hold for the method and conditions named. Binding seen in cells or lysates may run through a third protein. Binding calls can cover weak binding; strength is not graded here.

B1: AtCAT3-YN (enzyme, UniProt Q42547 1-492)
chain: MDPYKYRPSSAYNAPFYTTNGGAPVSNNISSLTIGERGPVLLEDYHLIEKVANFTRERIPERVVHARGISAKGFFEVTHDISNLTCADFLRAPGVQTPVIVRFSTVVHERASPETMRDIRGFAVKFYTREGNFDLVGNNTPVFFIRDGIQFPDVVHALKPNPKTNIQEYWRILDYMSHLPESLLTWCWMFDDVGIPQDYRHMEGFGVHTYTLIAKSGKVLFVKFHWKPTCGIKNLTDEEAKVVGGANHSHATKDLHDAIASGNYPEWKLFIQTMDPADEDKFDFDPLDVTKIWPEDILPLQPVGRLVLNRTIDNFFNETEQLAFNPGLVVPGIYYSDDKLLQCRIFAYGDTQRHRLGPNYLQLPVNAPKCAHHNNHHEGFMNFMHRDEEINYYPSKFDPVRCAEKVPTPTNSYTGIRTKCVIKKENNFKQAGDRYRSWAPDRQDRFVKRWVEILSEPRLTHEIRGIWISYWSQADRSLGQKLASRLNVRPSI
As for B1, the binding entry is listed as “binds”.

B2: AtCAT2-YN (enzyme, UniProt P25819 1-492)
chain: MDPYKYRPASSYNSPFFTTNSGAPVWNNNSSMTVGPRGPILLEDYHLVEKLANFDRERIPERVVHARGASAKGFFEVTHDISNLTCADFLRAPGVQTPVIVRFSTVIHERGSPETLRDPRGFAVKFYTREGNFDLVGNNFPVFFIRDGMKFPDMVHALKPNPKSHIQENWRILDFFSHHPESLNMFTFLFDDIGIPQDYRHMDGSGVNTYMLINKAGKAHYVKFHWKPTCGVKSLLEEDAIRVGGTNHSHATQDLYDSIAAGNYPEWKLFIQIIDPADEDKFDFDPLDVTKTWPEDILPLQPVGRMVLNKNIDNFFAENEQLAFCPAIIVPGIHYSDDKLLQTRVFSYADTQRHRLGPNYLQLPVNAPKCAHHNNHHEGFMNFMHRDEEVNYFPSRYDQVRHAEKYPTPPAVCSGKRERCIIEKENNFKEPGERYRTFTPERQERFIQRWIDALSDPRITHEIRSIWISYWSQADKSLGQKLASRLNVRPSI
For B2, the binding result was “binds”.
